According to patent US20240279622A1, “COELENTERAZINE-UTILIZING LUCIFERASES WITH STABLE GLOW-TYPE LIGHT EMISSION AND METHODS OF PRODUCING AND USING THEREOF” (MASARYKOVA UNIVERZITA, priority 2021, published 2024):

Experiments:
[1] = Bioluminescence emission spectrum, peak maximum wavelength; type: biochemical; settings: 100 mM potassium phosphate buffer pH 7.5, ambient temperature
Experimental: Bioluminescence emission spectra were measured at ambient temperature using the spectrofluorometer FluoroMax-4 (HORIBA, Japan). 1 mL of an enzyme solution in 100 mM potassium phosphate buffer pH 7.5 was added into a quartz cuvette and the enzymatic reaction was initiated by manual injection of 50 μL of ethanolic solution of coelenterazine followed by a quick mixing. The acquisition of luminescence emission spectra started after 10 seconds from the addition of the coelenterazine substrate. The resulting concentration of an enzyme in the reaction mixture ranged from 0.7 to 1.0 μM while the concentration of coelenterazine was approximately 30 μM. The data were collected for wavelengths from 350 to 700 nm with a step of 2 nm and each spectrum was measured in triplicates. The obtained spectrum was normalized relative to the value of the highest peak for each of the enzymes individually and the shape and positions of the luminescence emission peaks were compared.

[2] = literature values; cited from earlier work

| Molecule | Peak maximum wavelength (λmax) [1] [nm] | Emission spectrum peak maximum [2] [nm] |
| --- | --- | --- |
| RLuc8: Eight-point mutant of RLuc (A55T, C124A, S130A, K136R, A143M, M185V, M253L, and S287L) (protein, RLuc8) MTSKVYDPEQRKRMITGPQWWARCKQMNVLDSFINYYDSEKHAENAVIFLHGNATSSYLWRHVVPHIEPVARCIIPDLIGMGKSGKSGNGSYRLLDHYKYLTAWFELLNLPKKIIFVGHDWGAALAFHYAYEHQDRIKAIVHMESVVDVIESWDEWPDIEEDIALIKSEEGEKMVLENNFFVETVLPSKIMRKLEPEEFAAYLEPFKEKGEVRRPTLSWPREIPLVKGGKPDVVQIVRNYNAYLRASDDLPKLFIESDPGFFSNAIVEGAKKFPNTEFVKVKGLHFLQEDAPDEMGKYIKSFVERVLKNEQ | 478 | 487 |
| RLuc: Luciferase isolated from the sea pansy Renilla reniformis (protein, RLuc) MTSKVYDPEQRKRMITGPQWWARCKQMNVLDSFINYYDSEKHAENAVIFLHGNAASSYLWRHVVPHIEPVARCIIPDLIGMGKSGKSGNGSYRLLDHYKYLTAWFELLNLPKKIIFVGHDWGACLAFHYSYEHQDKIKAIVHAESVVDVIESWDEWPDIEEDIALIKSEEGEKMVLENNFFVETMLPSKIMRKLEPEEFAAYLEPFKEKGEVRRPTLSWPREIPLVKGGKPDVVQIVRNYNAYLRASDDLPKMFIESDPGFFSNAIVEGAKKFPNTEFVKVKGLHFSQEDAPDEMGKYIKSFVERVLKNEQ | 470 | 482 |
| Super RLuc8: Recently reported RLuc8 enzyme variant (Rahnama et el., 2017) (protein, Super RLuc8) MTSKVYDPEQRKRMITGPQWWARCKQMNVLDSFINYYDSEKHAENAVIFLHGNATSSYLWRHVVPHIEPVARCIIPDLIGMGKSGKSGNGSYRLLDHYKYLTAWFELLNLPKKIIFVGHDWGSALAFHYAYEHQDRIKAIVHMESVVDVIESWKNWPDIEEELALIKSEEGEKMVLENNFFVETVLPSVIMRKLEPEEFAAYLEPFKEKGEVRRPTLSWPREIPLVKGGKPDVVQIVRNYNAYLRASDDLPKLFIESDPGWFSNAIIEGAKKFPNTEFVKVKGLHFLQEDAPDEMGKYIKSFVERVLKNEQ | 540 |  |
| AncFT-D160A: AncFT carrying the single-point D160A mutation; blue-shifted emission (protein, Amino acid sequence of AncFT-D160A, AncFT carrying the single-point D160A mutation; blue-shifted emission) MVSASQRTTSTATGDEWWAKCKQVDVLDSEMSYYDSDPGKHKNTVIFLHGNPTSSYLWRNVIPHVEPLARCLAPDLIGMGKSGKLPNHSYRFVDHYRYLSAWFDSVNLPEKVTIVCHDWGSGLGFHWCNEHRDRVKGIVHMESVVDVIESWDEWPDIEEAIALIKSEAGEEMVLKKNFFIERLLPSSIMRKLSEEEMDAYREPFVEPGESRRPTLTWPREIPIKGDGPEDVIEIVKSYNKWLSTSKDIPKLFINADPGFFSNAIKKVTKNWPNQKTVTVKGLHFLQEDSPEEIGEAIADFLNELTK | 390 |  |
| AncFT: Ancestral protein AncHLD-RLuc with the L9-α4 region transplanted from RLuc; glow-type coelenterazine-utilizing luciferase (protein, Amino acid sequence of AncFT) MVSASQRTTSTATGDEWWAKCKQVDVLDSEMSYYDSDPGKHKNTVIFLHGNPTSSYLWRNVIPHVEPLARCLAPDLIGMGKSGKLPNHSYRFVDHYRYLSAWFDSVNLPEKVTIVCHDWGSGLGFHWCNEHRDRVKGIVHMESVVDVIESWDEWPDIEEDIALIKSEAGEEMVLKKNFFIERLLPSSIMRKLSEEEMDAYREPFVEPGESRRPTLTWPREIPIKGDGPEDVIEIVKSYNKWLSTSKDIPKLFINADPGFFSNAIKKVTKNWPNQKTVTVKGLHFLQEDSPEEIGEAIADFLNELTK | 454 |  |
| AncFT-L14: AncFT with additionally transplanted L14 loop (LVKGGKP at positions 223 to 229) from RLuc (protein, Amino acid sequence of AncFT-L14, AncFT with additionally transplanted L14 loop (LVKGGKP at positions 223 to 229) from RLuc) MVSASQRTTSTATGDEWWAKCKQVDVLDSEMSYYDSDPGKHKNTVIFLHGNPTSSYLWRNVIPHVEPLARCLAPDLIGMGKSGKLPNHSYRFVDHYRYLSAWFDSVNLPEKVTIVCHDWGSGLGFHWCNEHRDRVKGIVHMESVVDVIESWDEWPDIEEDIALIKSEAGEEMVLKKNFFIERLLPSSIMRKLSEEEMDAYREPFVEPGESRRPTLTWPREIPLVKGGKPDVIEIVKSYNKWLSTSKDIPKLFINADPGFFSNAIKKVTKNWPNQKTVTVKGLHFLQEDSPEEIGEAIADFLNELTK | 456 |  |
